PubChem BioAssay AID1508588 | Peter MacCallum Cancer Centre | 2020

Purpose: 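Which gene losses make BRAF-mutant melanoma cells more responsive to vemurafenib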 (primary screen)
System: human WM266.4 melanoma cells (BRAF V600 mutant)
Reagent: siRNA pool against human genes, 40 nM
Time to read-out: 96 h from transfection to read-out
Challenge: vemurafenib 300 nM (about IC25), added 48 h after transfection, for 48 h; comparison arm got DMSO vehicle only
Read-out: 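Ratios to non-targeting siRNA for cell gain, counted as DAPI nuclei after minus before drug and averaged over two replicates, and for absorbance-read medium lactate per cell; both binned into fold-change classes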
Direction: cell gain with vemurafenib: higher = more cell gain than with non-targeting siRNA; lactate per cell with vemurafenib: higher = more lactate made per cell
Active means: 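Enhancement is called by pairing each knock-down's vehicle-arm and drug-arm fold-change classes for viability or glycolysis; which class combinations qualify is not given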
Calls: active = enhances vemurafenib effect; inactive = no enhancement seen
Shown is one part, drawn at random, of about 18,000 reagents tested. 790 of all reagents (4.4%) were called active. 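Calls rest on a combination of fold-change classes in drug and vehicle arms, not all shown here.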

| target | cell gain with vemurafenib | lactate per cell with vemurafenib | activity call |
| --- | --- | --- | --- |
| PDE1C | 0.78 | 0.68 | inactive |
| IQCB1 | 0.37 | 0.46 | active |
| KRTAP19-4 | 0.31 | 0.92 | inactive |
| ZBTB45 | 0.98 | 0.38 | inactive |
| S100A4 | 0.04 | 1.48 | inactive |
| MICB | 1.06 | 0.87 | inactive |
| PTPN6 | 0.39 | 1.2 | inactive |
| STT3B | 0.31 | 0.94 | inactive |
| KRT83 | 0.57 | 2.58 | inactive |
| DEFB127 | 0 | 1.02 | active |
| BMPR1A | 0.43 | 1.33 | inactive |
| SLC25A34 | 0.74 | 1.22 | inactive |
| PLEKHS1 | 0 | 1.46 | inactive |
| IL12B | 0.91 | 0.7 | inactive |
| LARGE2 | 1.05 | 0.53 | inactive |
| CABCOCO1 | 0.73 | 0.88 | inactive |
| GDE1 | 0.41 | 1.03 | inactive |
| RHO | 0.46 | 0.41 | active |
| NIFK | 0.08 | 2.28 | inactive |
| AKR1D1 | 0.33 | 1.71 | inactive |
| FBP2 | 0.8 | 0.78 | inactive |
| BIN1 | -0.09 | 2.4 | inactive |

Continued; the last 3 above are carried over.
| target | cell gain with vemurafenib | lactate per cell with vemurafenib | activity call |
| --- | --- | --- | --- |
| AKR1D1 | 0.33 | 1.71 | inactive |
| FBP2 | 0.8 | 0.78 | inactive |
| BIN1 | -0.09 | 2.4 | inactive |
| LHX1 | 0.79 | 0.93 | inactive |
| FASTKD1 | 0.5 | 0.5 | inactive |
| INSRR | 0.49 | 1.32 | inactive |
| GEMIN7 | 0.19 | 2.3 | inactive |
| EWSR1 | 0.73 | 0.64 | inactive |
| NUDCD2 | 0.81 | 0.67 | inactive |
| ECM1 | 0.69 | 0.57 | inactive |
| ADH1B | 0.7 | 0.78 | inactive |
| SLC38A7 | 0.74 | 0.86 | inactive |
| ACTL6B | 0.47 | 1.38 | inactive |
| ANGPTL5 | 0.42 | 0.68 | active |
| FABP7 | 0.57 | 0.34 | active |
